Reference: paper PMC7862700
The other results are listed elsewhere or left out. The source does not settle which construct or isoform was used.

Target: T1, ELF2 (UniProt Q15723)
T1 sequence: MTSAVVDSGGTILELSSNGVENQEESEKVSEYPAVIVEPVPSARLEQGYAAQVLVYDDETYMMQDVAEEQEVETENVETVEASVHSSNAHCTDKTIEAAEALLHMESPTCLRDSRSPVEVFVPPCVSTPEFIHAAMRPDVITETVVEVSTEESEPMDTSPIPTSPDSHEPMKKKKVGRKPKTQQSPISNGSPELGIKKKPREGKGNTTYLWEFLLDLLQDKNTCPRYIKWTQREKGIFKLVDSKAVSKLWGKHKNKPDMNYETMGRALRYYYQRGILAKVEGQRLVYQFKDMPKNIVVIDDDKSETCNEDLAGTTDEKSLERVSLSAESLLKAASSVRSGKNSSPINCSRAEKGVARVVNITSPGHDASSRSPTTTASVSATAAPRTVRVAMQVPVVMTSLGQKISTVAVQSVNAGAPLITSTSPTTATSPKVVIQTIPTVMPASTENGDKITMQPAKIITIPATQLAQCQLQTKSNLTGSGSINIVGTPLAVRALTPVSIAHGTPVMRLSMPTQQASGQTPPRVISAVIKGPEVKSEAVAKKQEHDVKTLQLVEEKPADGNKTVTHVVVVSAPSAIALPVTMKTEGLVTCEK
Assay: DAPPL (digital affinity profiling via proximity ligation, sequencing)
Conditions: 10 mM Tris-HCl pH 7.5, 50 mM NaCl, 1 mM DTT, 4% glycerol, room temperature, 30 min; GST-TFs on glutathione beads, 16-mer random dsDNA library, 0.1% …; high values mean tight binding; double strand, one strand shown; scale: fold enrichment (6-mer frequency, TF over GST control)

| Sequence | binding signal |
| --- | --- |
| TCCTTG | 1.38 |
| TGGTTC | 1.45 |
| CTTATC | 1.13 |
| CTGTTT | 1.43 |
| TGCGAT | 1.07 |
| TGCACT | 1.45 |
| TTGTAC | 1.34 |
| TTTATA | 1.33 |
| AGCTTT | 1.17 |
| TATTCT | 1.37 |
| CTCGTG | 0.992 |
| CGATTA | 1.11 |
| TAATTT | 1.49 |
| CTCCTC | 1.31 |
| AAAATT | 1.36 |
| GATTTT | 1.11 |
| CTCTTG | 1.2 |
| ATGATA | 1.22 |
| ATTTGA | 1.16 |
| TTATGA | 1.07 |

| Sequence | binding signal |
| --- | --- |
| CGATCT | 1.21 |
| CCTTGG | 1.22 |
| TGTAAT | 1.19 |
| CCAAAA | 1.13 |
| ATGTAC | 1.28 |
| TACGCC | 1.15 |
| ACTCCC | 1.33 |
| AAGCGA | 1.05 |
| TGTGGA | 0.995 |
| ACCGAC | 1.31 |
| GCTGAA | 1.13 |
| ATGGCT | 1.26 |
| TATAAG | 1.12 |
| ATCATC | 1.08 |
| TGCAAA | 1.03 |
| TCATTC | 1.17 |
| TAAACA | 1.2 |
| TCTTTG | 1.09 |
| GCTCAA | 1.02 |

Quoted at random: two entries already listed

| Sequence | binding signal |
| --- | --- |
| CCTTGG | 1.22 |
| TACGCC | 1.15 |
